Counter-ions that a name gives are not always drawn. At least one compound was matched to its structure with a doubt left.
System: 5-hydroxytryptamine (5HT) reuptake, rat brain synaptosomes (cortex)
Test: 5-hydroxytryptamine (5HT) reuptake inhibition in rat brain synaptosomes (cortex), method of Ferris RM et al
Assay type: biochemical
Conditions: for IC50: 5HT reuptake inhibition, cortex; for IC50 / selectivity compared with paroxetine (in words): rat brain synaptosomes; for selectivity compared with paroxetine (in words): 5HT vs DA reuptake inhibition, versus paroxetine; for Relative Selectivity: Relative selectivity versus paroxetine; for 5HT/DA Selectivity: ratio from IC50 DA (striatum) and IC50 5HT (cortex)

Structure (SMILES)	IC50	selectivity compared with paroxetine (in words)	Relative Selectivity	5HT/DA Selectivity
O=C(CN1CC[C@@H](c2ccc(F)cc2)[C@H](COc2ccc3c(c2)OCO3)C1)c1ccc(F)cc1 [Example 1, (-)-Trans-N-p-fluorobenzoylmethyl-4-(p-fluorophenyl)-3-[[3,4-(methylenedioxy)phenoxy]methyl]-piperidine hydrochloride]	0.0211 µM	at least as selective as paroxetine	> 1.06	> 474
O=C(CN1CC[C@@H](c2ccc(F)cc2)[C@H](COc2ccc3c(c2)OCO3)C1)c1ccc(Cl)cc1 [Example 2, (-)-Trans-N-p-chlorobenzoylmethyl-4-(p-fluorophenyl)-3-[[3,4-(methylenedioxy)phenoxy]methyl]-piperidine hydrochloride]	0.00685 µM	seven times more selective	7.25	3241

— patent US5665736A, “N-benzoylmethyl-piperidines” (priority 1995, dated 1997)
